This is an account of results in patent publication US20140186875A1, “NOVEL OPTICAL LABELING MOLECULES FOR PROTEOMICS AND OTHER BIOLOGICAL ANALYSIS” (Montana State University, priority 2007, published 2014).

The data set deals with E. coli cytosolic proteins. Nature of the data set: Number of protein spots detected on 2D gels at increasing dye labeling levels. To be noted: 24 cm 3-10 2D gel, 532 nm laser.

For `CC1=CC(CCC(=O)NC(CS(=O)(=O)[O-])C(=O)NCCN(C)CCCCCC(=O)ON2C(=O)CCC2=O)=[N+]2C1=Cc1c(CCC[N+](C)(C)C)cc(-c3ccccc3)n1[B-]2(F)F` (stereo not shown) [Compound 43, 4,4-difluoro-1-methyl-5-phenyl-7-(3-trimethylammonium)-propyl-4-bora-3a,4a,diaza-s-indacene-3-(6-(N-methyl-N-(2-(2-propionamido-3-sulfonatepropionamido)ethyl)amino))hexanoic acid, succinimidyl ester hydrotrifluoroacetate], the “number of protein spots detected” value (1× labeling (400 pmol per 50 μg protein)) was 1,245, the “number of protein spots detected” value (5× labeling (2 nmol per 50 μg protein)) was 3,252, the “number of protein spots detected” value (10× labeling (4 nmol per 50 μg protein)) is 4,005 and the “number of protein spots detected” value (20× labeling (8 nmol per 50 μg protein)) was 4,825.
